{"sequences": {"note": "The chains behind the UniProt entries cited, without tags or fusion partners. Where a name states a change or a piece, a line headed by the entry shows the natural chain unless it says otherwise.", "UniProt P32246": "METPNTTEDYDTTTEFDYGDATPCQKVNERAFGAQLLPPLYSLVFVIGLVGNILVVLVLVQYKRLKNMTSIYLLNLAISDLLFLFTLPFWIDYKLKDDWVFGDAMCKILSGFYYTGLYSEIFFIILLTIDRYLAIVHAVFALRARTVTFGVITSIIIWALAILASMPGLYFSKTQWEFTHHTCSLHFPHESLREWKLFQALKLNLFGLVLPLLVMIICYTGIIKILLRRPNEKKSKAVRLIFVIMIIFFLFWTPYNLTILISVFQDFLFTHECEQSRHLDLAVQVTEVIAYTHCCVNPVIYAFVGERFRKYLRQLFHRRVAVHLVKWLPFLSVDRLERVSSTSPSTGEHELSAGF"}, "source": "patent EP4115885A1", "about": "(Charité - Universitätsmedizin Berlin, priority 2021, dated 2023)", "key": {"CCR1": {"molecular_target": "CCR1 (Homo sapiens, UniProt P32246)", "details": "at plasma concentrations above 100 ng /mL"}, "[1]": {"details": "cited from earlier work"}}, "data": [{"molecule": "C[C@@H]1CN(Cc2ccc(F)cc2)CCN1C(=O)COc1ccc(Cl)cc1NC(N)=O", "note": "[BAY 86-5277, N-[5-chloro-2-[2-[(2R)-4-[(4-fluorophenyl)methyl]-2-methyl-1-piperazinyl]-2-oxoethoxy]phenyl]-urea]", "values": [{"measurement": "mean trough CCR1 blockade", "setting": "CCR1", "result": "at least 90%"}, {"measurement": "most common adverse events", "setting": "[1]; ER formulation three times per day over 7 days, each 600 mg up to 1200 mg", "result": "gastrointestinal adverse events including nausea, diarrhea and vomiting"}, {"measurement": "safety with respect to vital signs, ECG and safety laboratory parameters", "setting": "[1]; single dose i.v. and oral liquid formulation, IR and ER tablets, all doses tested, healthy volunteers", "result": "found safe"}]}]}
